Drawing on patent US20170081347A1, “FUNCTIONALIZED AZABORINE COMPOUNDS AND AZABORINE-CONTAINING BIARYLCARBOXAMIDES, AND COMPOSITIONS AND METHODS THEREOF” (The Trustees of Boston College, priority 2014, published 2017), this text covers PAMPA for one molecule.

The series is described as follows: PAMPA (parellel artificial membrane permeability assay). Details: unit not given here. Format: in vitro ADME. (In general: PAMPA measures passive passage across an artificial lipid membrane.)

As to `O=C(NCc1ccncc1)c1ccc(-c2ccccc2)cc1`, the PAMPA is given as −3.8.
